The list shows a part of the results. Many values rest on one well or one pass, so single values are uncertain.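 Imaging used 1,536-well plates; nuclei positive for cleaved PARP by antibody were divided by total DNA-stained nuclei to yield the apoptosis fraction. Doses for screening kept most cells viable, and cell lines differ markedly in resting and induced cleaved-PARP levels.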
tested on: A375; assay: cleaved PARP positive nuclei fraction relative to DMSO control; melanoma cells; higher = more apoptosis; details: library dose: low library concentration; 72 h

| Compound | cleaved PARP positive nuclei fraction [%] |
| --- | --- |
| CCCCCCCCCCCCCCCCCCOP(=O)([O-])OC1CC[N+](C)(C)CC1 [Perifosine] + C[As](C)SC[C@H](NC(=O)CC[C@H](N)C(=O)O)C(=O)NCC(=O)O [Darinaparsin] (first compound 0.4 µM, partner dose 0.4 µM) | 377 |
| CC(=O)O[C@@]12CO[C@@H]1C[C@H](O)[C@@]1(C)C(=O)[C@H](O)C3=C(C)[C@@H](OC(=O)[C@H](O)[C@@H](NC(=O)OC(C)(C)C)c4ccccc4)C[C@@](O)([C@@H](OC(=O)c4ccccc4)[C@H]21)C3(C)C [Docetaxel] + N.N.[Cl][Pt][Cl] [cisplatin] (first compound 0.0001 µM, partner dose 1.6 µM) | 1740 |
| N.N.[Cl][Pt][Cl] [cisplatin] + C#Cc1cccc(Nc2ncnc3cc(OCCOC)c(OCCOC)cc23)c1 [erlotinib] (first compound 1.6 µM, partner dose 0.8 µM) | 130 |
| C[As](C)SC[C@H](NC(=O)CC[C@H](N)C(=O)O)C(=O)NCC(=O)O [Darinaparsin] + Cc1nc(Nc2ncc(C(=O)Nc3c(C)cccc3Cl)s2)cc(N2CCN(CCO)CC2)n1 [dasatanib] (first compound 0.4 µM, partner dose 0.004 µM) | 44.1 |
| Cn1sc(=O)n(Cc2ccccc2)c1=O + C[As](C)SC[C@H](NC(=O)CC[C@H](N)C(=O)O)C(=O)NCC(=O)O [Darinaparsin] (first compound 0.4 µM, partner dose 0.4 µM) | 102 |
| C[C@]12O[C@H](C[C@]1(O)CO)n1c3ccccc3c3c4c(c5c6ccccc6n2c5c31)CNC4=O [Lestaurtinib] + C[C@]1(c2nc3c(C(N)=O)cccc3[nH]2)CCCN1 [Veliparib] (first compound 0.004 µM, partner dose 1.4 µM) | 48.2 |
| Cn1cc(C2=C(c3cn(C4CCN(Cc5ccccn5)CC4)c4ccccc34)C(=O)NC2=O)c2ccccc21 [Enzastaurin] + CN1CCN(c2ccc3nc(-c4c(N)c5c(F)cccc5[nH]c4=O)[nH]c3c2)CC1 [Dovitinib] (first compound 0.8 µM, partner dose 0.1 µM) | 156 |
| CCCCCCCCc1ccc(CCC(N)(CO)CO)cc1 [fingolimod] + N.N.[Cl][Pt][Cl] [cisplatin] (first compound 2 µM, partner dose 1.6 µM) | 428 |
| Cn1cc(C2=C(c3cn(C4CCN(Cc5ccccn5)CC4)c4ccccc34)C(=O)NC2=O)c2ccccc21 [Enzastaurin] + CCCS(=O)(=O)Nc1ccc(F)c(C(=O)c2c[nH]c3ncc(Cl)cc23)c1F [PLX4720] (first compound 0.8 µM, partner dose 0.08 µM) | 127 |
| CC1(C)CCC(c2ccc(Cl)cc2)=C(CN2CCN(c3ccc(C(=O)NS(=O)(=O)c4ccc(N[C@H](CCN5CCOCC5)CSc5ccccc5)c(S(=O)(=O)C(F)(F)F)c4)cc3)CC2)C1 + N.N.[Cl][Pt][Cl] [cisplatin] (first compound 0.4 µM, partner dose 1.6 µM) | 413 |
| Cn1cc(C2=C(c3cn(C4CCN(Cc5ccccn5)CC4)c4ccccc34)C(=O)NC2=O)c2ccccc21 [Enzastaurin] + Nc1ccn([C@@H]2O[C@H](CO)[C@@H](O)C2(F)F)c(=O)n1 [gemcitabine] (first compound 0.8 µM, partner dose 0.0004 µM) | 116 |
| N.N.[Cl][Pt][Cl] [cisplatin] + Nc1ncn([C@H]2C[C@H](O)[C@@H](CO)O2)c(=O)n1 [decitabine] (first compound 1.6 µM, partner dose 0.1 µM) | 109 |
| Cn1sc(=O)n(Cc2ccccc2)c1=O + C[C@]12O[C@H](C[C@]1(O)CO)n1c3ccccc3c3c4c(c5c6ccccc6n2c5c31)CNC4=O [Lestaurtinib] (first compound 0.4 µM, partner dose 0.004 µM) | 80.6 |
| Cn1cc(C2=C(c3cn(C4CCN(Cc5ccccn5)CC4)c4ccccc34)C(=O)NC2=O)c2ccccc21 [Enzastaurin] + COCC[n+]1c2c(n(Cc3cnccn3)c1C)C(=O)c1ccccc1C2=O [YM155] (first compound 0.8 µM, partner dose 0.0004 µM) | 242 |
| C[C@]1(O)C[C@@H](c2nc(-c3ccc4ccc(-c5ccccc5)nc4c3)c3c(N)nccn32)C1 + N.N.[Cl][Pt][Cl] [cisplatin] (first compound 0.4 µM, partner dose 1.6 µM) | 323 |
| C[C@]12O[C@H](C[C@]1(O)CO)n1c3ccccc3c3c4c(c5c6ccccc6n2c5c31)CNC4=O [Lestaurtinib] + CC(C)C[C@H](NC(=O)[C@H](Cc1ccccc1)NC(=O)c1cnccn1)B(O)O [Bortezomib] (first compound 0.004 µM, partner dose 0.001 µM) | 72.1 |
| COc1ccc(C2=N[C@@H](c3ccc(Cl)cc3)[C@@H](c3ccc(Cl)cc3)N2C(=O)N2CCNC(=O)C2)c(OC(C)C)c1 [Nutlin-3] + C[C@]12O[C@H](C[C@]1(O)CO)n1c3ccccc3c3c4c(c5c6ccccc6n2c5c31)CNC4=O [Lestaurtinib] (first compound 0.1 µM, partner dose 0.004 µM) | 54.2 |
| C=CCNC1=C2C[C@@H](C)C[C@H](OC)[C@H](O)[C@@H](C)/C=C(\C)[C@H](OC(N)=O)[C@@H](OC)/C=C\C=C(/C)C(=O)NC(=CC1=O)C2=O [Tanespimycin] + C[As](C)SC[C@H](NC(=O)CC[C@H](N)C(=O)O)C(=O)NCC(=O)O [Darinaparsin] (first compound 0.002 µM, partner dose 0.4 µM) | 79.9 |
| COc1ccc(C2=N[C@@H](c3ccc(Cl)cc3)[C@@H](c3ccc(Cl)cc3)N2C(=O)N2CCNC(=O)C2)c(OC(C)C)c1 [Nutlin-3] + C[As](C)SC[C@H](NC(=O)CC[C@H](N)C(=O)O)C(=O)NCC(=O)O [Darinaparsin] (first compound 0.1 µM, partner dose 0.4 µM) | 140 |
| Cn1cc(C2=C(c3cn(C4CCN(Cc5ccccn5)CC4)c4ccccc34)C(=O)NC2=O)c2ccccc21 [Enzastaurin] + CNC(=O)c1cc(Oc2ccc(NC(=O)Nc3ccc(Cl)c(C(F)(F)F)c3)cc2)ccn1 [sorafenib] (first compound 0.8 µM, partner dose 0.4 µM) | 72.7 |
| C[C@]12O[C@H](C[C@]1(O)CO)n1c3ccccc3c3c4c(c5c6ccccc6n2c5c31)CNC4=O [Lestaurtinib] + CO[C@H]1C[C@@H]2CC[C@@H](C)[C@@](O)(O2)C(=O)C(=O)N2CCCC[C@H]2C(=O)O[C@H]([C@H](C)C[C@@H]2CC[C@@H](OCCO)[C@H](OC)C2)CC(=O)[C@H](C)/C=C(\C)[C@@H](O)[C@@H](OC)C(=O)[C@H](C)C[C@H](C)/C=C/C=C/C=C/1C [everolimus] (first compound 0.004 µM, partner dose 0.02 µM) | 939 |
| N.N.[Cl][Pt][Cl] [cisplatin] + Cn1c(Nc2ccc(C(F)(F)F)cc2)nc2cc(Oc3ccnc(-c4ncc(C(F)(F)F)[nH]4)c3)ccc21 [CHIR265] (first compound 1.6 µM, partner dose 0.08 µM) | 34.9 |
| C[C@]12O[C@H](C[C@]1(O)CO)n1c3ccccc3c3c4c(c5c6ccccc6n2c5c31)CNC4=O [Lestaurtinib] + C=C(c1ccc(C(=O)O)cc1)c1cc2c(cc1C)C(C)(C)CCC2(C)C [Bexarotene] (first compound 0.004 µM, partner dose 2 µM) | 107 |
| N.N.[Cl][Pt][Cl] [cisplatin] + CO[C@H]1C[C@@H]2CC[C@@H](C)[C@@](O)(O2)C(=O)C(=O)N2CCCC[C@H]2C(=O)O[C@H]([C@H](C)C[C@@H]2CC[C@@H](OCCO)[C@H](OC)C2)CC(=O)[C@H](C)/C=C(\C)[C@@H](O)[C@@H](OC)C(=O)[C@H](C)C[C@H](C)/C=C/C=C/C=C/1C [everolimus] (first compound 1.6 µM, partner dose 0.02 µM) | 452 |
| COc1ccc(C2=N[C@@H](c3ccc(Cl)cc3)[C@@H](c3ccc(Cl)cc3)N2C(=O)N2CCNC(=O)C2)c(OC(C)C)c1 [Nutlin-3] + N.N.[Cl][Pt][Cl] [cisplatin] (first compound 0.1 µM, partner dose 1.6 µM) | 108 |
| Cn1sc(=O)n(Cc2ccccc2)c1=O + N.N.[Cl][Pt][Cl] [cisplatin] (first compound 0.4 µM, partner dose 1.6 µM) | 101 |
| Cn1cc(C2=C(c3cn(C4CCN(Cc5ccccn5)CC4)c4ccccc34)C(=O)NC2=O)c2ccccc21 [Enzastaurin] + CN(c1ncccc1CNc1nc(Nc2ccc3c(c2)CC(=O)N3)ncc1C(F)(F)F)S(C)(=O)=O [PF562271] (first compound 0.8 µM, partner dose 0.08 µM) | 150 |
| C[C@]12O[C@H](C[C@]1(O)CO)n1c3ccccc3c3c4c(c5c6ccccc6n2c5c31)CNC4=O [Lestaurtinib] + CCCS(=O)(=O)Nc1ccc(F)c(C(=O)c2c[nH]c3ncc(Cl)cc23)c1F [PLX4720] (first compound 0.004 µM, partner dose 0.08 µM) | 199 |
| C[C@]12O[C@H](C[C@]1(O)CO)n1c3ccccc3c3c4c(c5c6ccccc6n2c5c31)CNC4=O [Lestaurtinib] + COc1ccc(Cl)c(Nc2nc3ccccc3nc2NS(=O)(=O)c2cccc(NC(=O)C(C)(C)N)c2)c1 [XL147] (first compound 0.004 µM, partner dose 0.8 µM) | 152 |

Quoted at random: 2 entries already listed.

| Compound | cleaved PARP positive nuclei fraction [%] |
| --- | --- |
| Cn1sc(=O)n(Cc2ccccc2)c1=O + N.N.[Cl][Pt][Cl] [cisplatin] (first compound 0.4 µM, partner dose 1.6 µM) | 101 |
| N.N.[Cl][Pt][Cl] [cisplatin] + C#Cc1cccc(Nc2ncnc3cc(OCCOC)c(OCCOC)cc23)c1 [erlotinib] (first compound 1.6 µM, partner dose 0.8 µM) | 130 |
